Read-outs that look alike come from different tables or passages of the source.
How the values were obtained:
CYP3A4/5 [1] = conditions: HLM, testosterone 6β-hydroxylase
CYP3A4/5 [2] = conditions: HLM, midazolam 1′-hydroxylase

CCC(=O)C(C[C@H](C)N(C)C)(c1ccccc1)c1ccccc1 [esmethadone]
Conclusion (inhibitory activity) (CYP3A4/5 [1]): Yes | Conclusion (inhibitory activity) (CYP3A4/5 [2]): Yes

Reference: publication PMC11035515 (Drugs in R&D, 2023)
